Test results as given in doi:10.1101/2020.05.23.111989.
Like-named read-outs stand apart in the source and are kept apart here. These are yes or no findings as the source states them, for the method shown. For some of these results: In cells and extracts the contact can be indirect. Some binding calls cover weakened binding; strength is not graded here. One block for each binder: values may come before it.

Sequences of proteins named here, by UniProt entry; tags and fusion partners are left off.
UniProt Q15691: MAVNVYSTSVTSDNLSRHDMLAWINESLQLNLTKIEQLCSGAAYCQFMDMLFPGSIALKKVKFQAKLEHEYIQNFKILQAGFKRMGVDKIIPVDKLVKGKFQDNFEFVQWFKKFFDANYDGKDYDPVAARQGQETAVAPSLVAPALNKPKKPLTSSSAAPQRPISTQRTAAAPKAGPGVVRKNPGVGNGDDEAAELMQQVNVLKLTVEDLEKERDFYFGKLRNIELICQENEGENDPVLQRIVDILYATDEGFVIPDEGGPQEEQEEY

What was measured:
Test in all cases: pull-down
EB1-GST [1] = molecular target: EB1-GST (UniProt Q15691)
EB1-GST [2] = molecular target: EB1-GST (UniProt Q15691); remark: listed apart in the source
[3] = molecular target: EB1-GST phosphorylated with Cdk1-Cyclin B (UniProt Q15691)

binding (EB1-GST [1]): binds | binding (EB1-GST [2]): binds
B1: GTSE1 (endogenous, U2OS cell extract) (protein, UniProt Q9NYZ3 1-739)
chain: MEGGGGRDEPSACRAGDVNMDDPKKEDILLLADEKFDFDLSLSSSSANEDDEVFFGPFGHKERCIAASLELNNPVPEQPPLPTSESPFAWSPLAGEKFVEVYKEAHLLALHIESSSRNQAAQAAKPEDPRSQGVERFIQESKLKINLFEKEKEMKKSPTSLKRETYYLSDSPLLGPPVGEPRLLASSPALPSSGAQARLTRAPGPPHSAHALPRESCTAHAASQAATQRKPGTKLLLPRAASVRGRSIPGAAEKPKKEIPASPSRTKIPAEKESHRDVLPDKPAPGAVNVPAAGSHLGQGKRAIPVPNKLGLKKTLLKAPGSTSNLARKSSSGPVWSGASSACTSPAVGKAKSSEFASIPANSSRPLSNISKSGRMGPAMLRPALPAGPVGASSWQAKRVDVSELAAEQLTAPPSASPTQPQTPEGGGQWLNSSCAWSESSQLNKTRSIRRRDSCLNSKTKVMPTPTNQFKIPKFSIGDSPDSSTPKLSRAQRPQSCTSVGRVTVHSTPVRRSSGPAPQSLLSAWRVSALPTPASRRCSGLPPMTPKTMPRAVGSPLCVPARRRSSEPRKNSAMRTEPTRESNRKTDSRLVDVSPDRGSPPSRVPQALNFSPEESDSTFSKSTATEVAREEAKPGGDAAPSEALLVDIKLEPLAVTPDAASQPLIDLPLIDFCDTPEAHVAVGSESRPLIDLMTNTPDMNKNVAKPSPVVGQLIDLSSPLIQLSPEADKENVDSPLLKF

binding (EB1-GST [1]): binds | binding [3]: binds
B2: Full length GTSE1 (purified, unphosphorylated) (protein, UniProt Q9NYZ3 1-739)
chain: B1 chain
